Assay results reported in PubChem BioAssay (NCATS).
The inconclusive results got no clear call from the source; some entries with a clear call stand among them for comparison. Potencies of inconclusive entries are doubtful fits and often do not repeat. Calls of active or inactive are those of the source. Calls follow the shape of the dose curve; as a rule, active = well fitted inhibition curve with a large enough effect; inconclusive = small, poorly fitted or top-dose-only effect; inactive = no such curve, though single readings can be large or run the other way.

Each molecule was assayed against Retinaldehyde dehydrogenase 3 (Homo sapiens) (UniProt P47895) (assay: qHTS for Inhibitors of the Aldehyde Dehydrogenase Family (ALDH1A3) Validation screen (AID 2061312; also: nearly all actives have a fitted effect of over 45% in size)). Details: ALDH1A3 enzyme inhibition qHTS validation, fluorescence; series mostly up to 84.7 µM.
Potency is read from the fitted curve at half-maximal effect.

Row | Structure (SMILES) | Potency
1 | Nc1c(S(=O)(=O)O)cc(Nc2ccc(Nc3nc(Cl)nc(Nc4ccc(S(=O)(=O)O)cc4)n3)c(S(=O)(=O)O)c2)c2c1C(=O)c1ccccc1C2=O | inconclusive: 12.6 µM [inhibitor, partial curve]
2 | C=CCCN1CCC2(CC1)CN(C(=O)c1c(F)cccc1F)c1ccc(Cl)cc12 | inactive
3 | CCCCCCCCCCCCCCCCCC(=O)OC(CC(=O)O)C[N+](C)(C)C (stereo not given) | inconclusive: 7.94 µM [inhibitor, partial curve]
4 | NC(=O)CNCCC(c1ccccc1)c1ccccc1 | inactive
5 | CC(C)(C)c1onc(OCP(=O)(O)O)c1CC(N)C(=O)O (stereo not given) | inconclusive: 1.12 µM [inhibitor, full curve]
6 | CCCCn1c(-c2ccccc2)nc(-c2ccccc2)c1CN(Cc1ccc2c(c1)OCO2)Cc1ccc2c(c1)OCO2 | inconclusive: 2 µM [inhibitor, full curve]
7 | Cc1nc(C)c2c(n1)N(Cc1ccc(-c3ccccc3-c3nn[nH]n3)cc1)C(=O)CC2 | inconclusive: 7.94 µM [inhibitor, partial curve, poor fit]
8 | CCCC[C@@]1(C2CCCC2)Cc2cc(OCC(=O)O)c(Cl)c(Cl)c2C1=O | inconclusive: 11.2 µM [inhibitor, partial curve, poor fit]
9 | COc1ccc2nccc(C(=O)CC[C@@H]3CCN(CC#Cc4cc(F)cc(F)c4F)C[C@@H]3C(=O)O)c2c1 | inconclusive: 39.8 µM [inhibitor, full curve, poor fit]
10 | N[C@@H](CS(=O)O)C(=O)O | inconclusive: 14.1 µM [inhibitor, partial curve, poor fit]
11 | O=C(O)COCCN1CCN(C(c2ccccc2)c2ccc(Cl)cc2)CC1 (stereo not given) | inconclusive: 1.78 µM [inhibitor, full curve]
12 | CC(C)Nc1nc(Nc2ccccc2)nc(-c2ccccc2)n1 | inactive
13 | COc1ccccc1CN[C@@H]1CCCN[C@@H]1c1ccccc1 | inconclusive: 2.82 µM [inhibitor, partial curve, poor fit]
14 | CCC1(O)CC2CN(CCc3c([nH]c4ccccc34)[C@@](C(=O)OC)(c3cc4c(cc3OC)N(C=O)C3[C@]45CCN4CC=C[C@@](CC)([C@@H](OC(C)=O)[C@]3(O)C(=O)OC)[C@H]45)C2)C1 (stereo not given in full) | inconclusive: 0.355 µM [inhibitor, full curve]
15 | COc1cc(OC)cc(C(=O)Nc2ccc(Cl)c(-c3nc4ccc(N(C)C)cc4[nH]3)c2)c1 | inconclusive: 3.98 µM [inhibitor, full curve, poor fit]
16 | CC(C)C(=O)Oc1ccc(CO)cc1[C@H](CCN(C(C)C)C(C)C)c1ccccc1 | inactive
17 | C[C@H](Oc1cc(-c2cnn(C3CCNCC3)c2)cnc1N)c1c(Cl)ccc(F)c1Cl | inactive
18 | O=C(CCCN1CCC(O)(c2cccc(C(F)(F)F)c2)CC1)c1ccc(F)cc1 | inconclusive: 6.31 µM [inhibitor, partial curve]
19 | CC1(C)CC=C(c2cnc3ccccc3c2)c2cc(C(=O)Nc3ccc(C(=O)O)cc3)ccc21 | inconclusive: 31.6 µM [inhibitor, full curve, poor fit]
20 | CNCC[C@H](Oc1ccc(C(F)(F)F)cc1)c1ccccc1 | inactive

Two records picked at random from the list so far:
Row | Structure (SMILES) | Potency
10 | N[C@@H](CS(=O)O)C(=O)O | inconclusive: 14.1 µM [inhibitor, partial curve, poor fit]
14 | CCC1(O)CC2CN(CCc3c([nH]c4ccccc34)[C@@](C(=O)OC)(c3cc4c(cc3OC)N(C=O)C3[C@]45CCN4CC=C[C@@](CC)([C@@H](OC(C)=O)[C@]3(O)C(=O)OC)[C@H]45)C2)C1 (stereo not given in full) | inconclusive: 0.355 µM [inhibitor, full curve]

Remaining list, next part

Row | Structure (SMILES) | Potency
21 | C[C@@H]1C[C@H](C)CN(CCC(=O)Nc2ccc(Br)cc2)C1 | inconclusive: 7.94 µM [inhibitor, partial curve, poor fit]
22 | CC(C)(C)OC(=O)N1CCC(OCc2nc(-c3ccncc3)no2)CC1 | inconclusive: 2.82 µM [inhibitor, full curve, poor fit]
23 | OC[C@H]1O[C@H](O[C@]2(CCl)O[C@H](CCl)[C@@H](O)[C@@H]2O)[C@H](O)[C@@H](O)[C@H]1Cl | inconclusive: 22.4 µM [inhibitor, partial curve, poor fit]
24 | CC(C)CN(C[C@@H](O)[C@H](Cc1ccccc1)NC(=O)O[C@@H]1CO[C@H]2OCC[C@H]21)S(=O)(=O)c1ccc(N)cc1 | inconclusive: 1 µM [inhibitor, full curve, poor fit]
25 | COc1cc(CCc2cc(NC(=O)c3ccc(N4CC(C)NC(C)C4)cc3)n[nH]2)cc(OC)c1 (stereo not given) | inactive
26 | CN(C)CCn1cc(-c2ccc(F)cc2)c(-n2cccc2)n1 | inactive
27 | CN1CCc2cccc3c2C1Cc1ccc(O)c(O)c1-3 (stereo not given) | inconclusive: 4.47 µM [inhibitor, partial curve]
28 | N=C(N)SCCc1cnc[nH]1 | inconclusive: 1.78 µM [inhibitor, full curve, poor fit]
29 | COc1ccc(CNC(=O)c2cc(-c3cncc(C)c3)ncc2-c2nccs2)nc1OC | inconclusive: 12.6 µM [inhibitor, full curve]
30 | CCCCCCCCCCC(C)(C)C(=O)Nc1c(OC)cc(OC)cc1OC | inactive
31 | Cc1[nH]c2ccccc2c1CCNC(=O)c1cccs1 | inactive
32 | O=S(=O)(Nc1ccccc1N1CCCCC1)c1ccc(Cl)s1 | inactive
33 | CCCCCCCCCCCCCCCCCCN(CCCCCCCCCCCCCCCCCC)CCCN(CCO)CCO | inconclusive: 28.2 µM [inhibitor, partial curve, poor fit]
34 | CCC1=CC2CN(C1)Cc1c([nH]c3ccccc13)[C@@](C(=O)OC)(c1cc3c(cc1OC)N(C)[C@H]1[C@@](O)(C(=O)OC)[C@H](OC(C)=O)[C@]4(CC)C=CCN5CC[C@]31[C@@H]54)C2 (stereo not given in full) | inconclusive: 11.2 µM [inhibitor, full curve]
35 | CCOC(=O)c1ccc(NC2CCCCC2)c(N)c1 | inactive
36 | NS(=O)(=O)Nc1ncnc(OCCOc2ncc(Br)cn2)c1-c1ccc(Br)cc1 | inconclusive: 15.8 µM [inhibitor, partial curve, poor fit]
37 | c1cc(CN2CCCCC2)cc(OCCCNc2nc3ccccc3s2)c1 | inconclusive: 8.91 µM [inhibitor, partial curve]
38 | CC(=O)[C@H]1CC[C@H]2[C@@H]3CCC4=CC(=O)CC[C@]4(C)[C@H]3CC[C@]12C | inactive
39 | c1ccc(Nc2nc3c(s2)CCCc2[nH]ncc2-3)nc1 | inactive
40 | CC[N+](CC)(CC)CC | inactive
